Paper doi:10.1101/2021.05.14.444243
Results are given in words; binding and its absence hold for the method and conditions named. Binding calls can cover weak binding; strength is not graded here.

Target: T1, N-terminally truncated SPO-11 (SPO-11Δ1-47) (C. elegans) (UniProt Q22236)
T1 sequence: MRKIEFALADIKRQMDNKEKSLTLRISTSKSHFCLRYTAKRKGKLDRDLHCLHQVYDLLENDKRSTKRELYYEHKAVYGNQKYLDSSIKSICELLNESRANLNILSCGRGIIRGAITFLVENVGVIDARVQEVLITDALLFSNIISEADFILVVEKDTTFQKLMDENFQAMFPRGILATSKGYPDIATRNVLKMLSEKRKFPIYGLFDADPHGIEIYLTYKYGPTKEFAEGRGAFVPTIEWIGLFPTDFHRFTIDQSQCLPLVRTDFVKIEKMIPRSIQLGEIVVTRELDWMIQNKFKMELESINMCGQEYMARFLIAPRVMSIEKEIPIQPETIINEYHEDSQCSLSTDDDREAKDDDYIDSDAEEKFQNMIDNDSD
Assay: two-hybrid

DSB-1 (full-length) (C. elegans)
binding: binds

N-terminally truncated DSB-1 (DSB-1Δ1-33) (C. elegans) (domain or fragment)
binding: no binding
